According to PubChem BioAssay AID330 (DTP/NCI, 2004):
The list does not hold the whole screen: it is rich in T/C values a quarter to a half above the control, in often repeated tests (any T/C) and in doses without a T/C. Further doses and runs are listed elsewhere. T/C gives the treated animals as a percentage of the vehicle group. Some entries give survivors of the animals treated and no T/C: the source files T/C as zero there, which appears to mark a toxic dose or a test without result, not a measured value. Some survivor counts are full or nearly so, which does not show that the dose was tolerated: survival well below the control is almost never listed, so the zero probably covers shortened survival too. Survivors were counted at the toxicity check, usually on the fifth day, unless a day is given; later deaths do not show. Schedule codes are those of the source, taken here to give the interval after Q, in days (D) or hours (H), and the number of doses after X. Some entries hold several experiments; the results are listed from low to high. Counts like (3×) give the number of equal values in this list. For survival time, the PubChem record calls one and a half times the control and up active, and a quarter to a half above the control has no call in these data; cut-offs in other NCI protocols can differ. Some T/C values carry the count of animals alive at the toxicity check (mostly the fifth day); where none is given, no animal had died by that day.

System: P388 leukemia ip, CD2F1 mice, survival T/C
Assay: NCI In Vivo Anticancer Drug Screen. Data for tumor model P388 Leukemia (intraperitoneal) in CD2F1 (CDF1) mice
Conditions: T/C endpoint: median survival time, higher T/C = longer survival
[1] = dose: 125.0 mg/kg/injection, schedule: Q01DX001 (ip), vehicle: water

NCCCN=c1ccc2c3c1c(O)c1c(O)ccc(=O)c1c3[nH]n2CCNCCO was tested, and the T/C (dose: 25.0 mg/kg/injection, schedule: Q01DX001 (ip), vehicle: water, evaluated on day 30) was 213 % of control (2×), the T/C (dose: 25.0 mg/kg/injection, schedule: Q01DX001 (ip), vehicle: water, evaluated on day 45) was 237 (2×), 250 (2×), 305 % of control (2×) and the T/C (dose: 25.0 mg/kg/injection, schedule: Q01DX001 (ip), vehicle: water, evaluated on day 60) was 238 (2×), 270 (2×), 294 % of control (2×). For the same molecule, the T/C (dose: 37.0 mg/kg/injection, schedule: Q01DX001 (ip), vehicle: water, evaluated on day 30) was 227 % of control [9 of 10 alive] (2×), the T/C (dose: 37.0 mg/kg/injection, schedule: Q01DX001 (ip), vehicle: water, evaluated on day 45) was 263 (2×), 275 (2×), 330 [9 of 10 alive] (2×), 385 % of control (2×) and the T/C (dose: 37.0 mg/kg/injection, schedule: Q01DX001 (ip), vehicle: water, evaluated on day 60) was 235, 245, 265, 284 (2×), 305 (2×), 326 (2×), 366, 385 % of control (2×). For the same molecule, the T/C (dose: 56.0 mg/kg/injection, schedule: Q01DX001 (ip), vehicle: water, evaluated on day 30) was 291 % of control [9 of 10 alive] (2×), the T/C (dose: 56.0 mg/kg/injection, schedule: Q01DX001 (ip), vehicle: water, evaluated on day 45) was 255 [9 of 10 alive] (2×), 290 (2×), 354 (2×), 403 % of control (2×) and the T/C (dose: 56.0 mg/kg/injection, schedule: Q01DX001 (ip), vehicle: water, evaluated on day 60) was 245, 264, 285 [9 of 10 alive], 346 (2×), 347 (2×), 367 (2×), 435, 588 % of control (2×). The survivor count (dose: 75.0 mg/kg/injection, schedule: Q04DX002 (ip), vehicle: water) was 3 of 8, the T/C (dose: 85.0 mg/kg/injection, schedule: Q01DX001 (ip), vehicle: water, evaluated on day 30) was 194 % of control [7 of 10 alive] (2×) and the T/C (dose: 85.0 mg/kg/injection, schedule: Q01DX001 (ip), vehicle: water, evaluated on day 45) was 264 [7 of 10 alive] (2×), 412 (2×), 450 (2×), 468 % of control (2×). The T/C (dose: 85.0 mg/kg/injection, schedule: Q01DX001 (ip), vehicle: water, evaluated on day 60) was 333, 489 (2×), 509, 588 (2×), 594, 612, 625 (2×), 631 % of control (2×), the T/C (dose: 100.0 mg/kg/injection, schedule: Q04DX002 (ip), vehicle: saline) was 131 % of control [4 of 5 alive] and the survivor count (dose: 100.0 mg/kg/injection, schedule: Q04DX002 (ip), vehicle: water) was 2 of 5. The T/C [1] was 588 % of control [8 of 10 alive] (2×) and the survivor count [1] was 2 of 10, 4 of 10 (2×), 5 of 10, 6 of 10.
Cc1cc2nc(CC(=O)c3ccncc3)c(=O)[nH]c2cc1C was tested, and the survivor count (dose: 240.0 mg/kg/injection, schedule: Q01DX005 (ip), vehicle: saline with Tween-80) was 1 of 6.
With CC(C)C1(c2ccsc2)NC(=O)NC1=O (stereo not drawn) the survivor count (dose: 400.0 mg/kg/injection, schedule: Q01DX009 (ip), vehicle: Klucel (hydroxypropylcellulose) (HPC)) was 1 of 6.
In the case of Nc1nc(N)c2cc(Sc3ccc4ccccc4c3)ccc2n1, the T/C (dose: 100.0 mg/kg/injection, schedule: Q01DX009 (ip), vehicle: saline with Tween-80) is reported as 140 % of control and the survivor count (dose: 400.0 mg/kg/injection, schedule: Q01DX009 (ip), vehicle: saline with Tween-80) is reported as 5 of 6.
With C1CCC(NC2CCCCC2)CC1 the survivor count (dose: 120.0 mg/kg/injection, schedule: Q01DX005 (ip), vehicle: saline) was 0 of 6.
In the case of CCn1c(-c2c(Cl)cc(O)cc2Cl)cc2c(Cl)cc(O)cc21, the survivor count (dose: 240.0 mg/kg/injection, schedule: Q01DX005 (ip), vehicle: Klucel (hydroxypropylcellulose) (HPC)) is reported as 0 of 6.
In the case of O=C(c1ccc(-c2ccccc2)cc1)C1C(c2ccccc2)N1C1CCCCC1 (stereo not drawn), the survivor count (dose: 12.5 mg/kg/injection, schedule: Q01DX009 (ip), vehicle: other) is reported as 6 of 6, the survivor count (dose: 50.0 mg/kg/injection, schedule: Q01DX009 (ip), vehicle: other) is reported as 6 of 6 and the survivor count (dose: 200.0 mg/kg/injection, schedule: Q01DX009 (ip), vehicle: other) is reported as 6 of 6.
CC(/C=N/NC(=O)C[n+]1ccccc1)=N/NC(=O)C[n+]1ccccc1 was tested, and the T/C (dose: 12.5 mg/kg/injection, schedule: Q01DX005 (ip), vehicle: saline with Tween-80) was 128 % of control, the T/C (dose: 25.0 mg/kg/injection, schedule: Q01DX005 (ip), vehicle: saline with Tween-80) was 125 % of control and the T/C (dose: 50.0 mg/kg/injection, schedule: Q01DX005 (ip), vehicle: saline with Tween-80) was 125 % of control [5 of 6 alive]. For the same molecule, the survivor count (dose: 100.0 mg/kg/injection, schedule: Q01DX005 (ip), vehicle: saline with Tween-80) was 0 of 6 and the survivor count (dose: 200.0 mg/kg/injection, schedule: Q01DX005 (ip), vehicle: saline with Tween-80) was 0 of 6.
For CCOC(=O)C1(c2ccccc2)CCN(c2c3ccccc3nc3ccccc23)CC1, the survivor count (dose: 200.0 mg/kg/injection, schedule: Q04DX003 (ip), vehicle: Klucel (hydroxypropylcellulose) (HPC)) was 3 of 6 and the survivor count (dose: 400.0 mg/kg/injection, schedule: Q04DX003 (ip), vehicle: Klucel (hydroxypropylcellulose) (HPC)) was 3 of 6.
